These results are taken from PMC9071465.

Common to all, as to test: fluorescence anisotropy
The target in data set [1] is T1, At-HIGLE1-183 (Arabidopsis thaliana) (UniProt Q682H4).
T1 sequence (looked up): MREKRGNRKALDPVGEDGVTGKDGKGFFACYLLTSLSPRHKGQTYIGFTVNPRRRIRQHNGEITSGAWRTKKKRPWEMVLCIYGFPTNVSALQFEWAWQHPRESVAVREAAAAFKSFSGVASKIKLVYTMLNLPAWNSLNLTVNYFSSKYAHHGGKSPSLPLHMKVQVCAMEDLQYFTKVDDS
The following applies: 2.5 mM Ca2+; 20 mM HEPES pH 7.5, 2.5 mM CaCl2, 100 mM NaCl, 0.5 mM DTT, 2 mM EDTA, 0.1 mg/ml BSA, 25 C; 25 nM DNA (15 nM labeled), protein 0-600 nM; recombinant protein; residues 1-183; protein details: N-terminal 6xHis-SUMO, cleaved off; label: 5' 6-FAM on F0-1; folded or branched DNA.

For data set [2], the target named is T2, At-HIGLE R39A (Arabidopsis thaliana) (UniProt Q682H4).
T2 sequence (looked up): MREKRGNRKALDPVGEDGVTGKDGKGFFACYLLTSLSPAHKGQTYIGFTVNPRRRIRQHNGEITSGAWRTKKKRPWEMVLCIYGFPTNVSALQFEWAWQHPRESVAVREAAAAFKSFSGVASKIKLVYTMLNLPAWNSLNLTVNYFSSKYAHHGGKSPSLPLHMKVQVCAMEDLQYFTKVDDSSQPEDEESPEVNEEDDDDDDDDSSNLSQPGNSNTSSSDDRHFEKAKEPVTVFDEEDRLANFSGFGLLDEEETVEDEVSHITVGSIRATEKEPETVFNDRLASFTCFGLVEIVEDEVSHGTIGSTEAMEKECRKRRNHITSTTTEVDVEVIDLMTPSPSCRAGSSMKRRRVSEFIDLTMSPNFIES
The following applies: 2.5 mM Ca2+; 20 mM HEPES pH 7.5, 2.5 mM CaCl2, 100 mM NaCl, 0.5 mM DTT, 2 mM EDTA, 0.1 mg/ml BSA, 25 C; 25 nM DNA (15 nM labeled), protein 0-600 nM; recombinant protein; residues 1-368; protein details: N-terminal 6xHis-SUMO, cleaved off; label: 5' 6-FAM on F0-1; folded or branched DNA.

Data set [3] addresses T3, At-HIGLE H100A (Arabidopsis thaliana) (UniProt Q682H4).
T3 sequence (looked up): T2 sequence (looked up) with A39R, H100A
The conditions noted are these: 2.5 mM Ca2+; 20 mM HEPES pH 7.5, 2.5 mM CaCl2, 100 mM NaCl, 0.5 mM DTT, 2 mM EDTA, 0.1 mg/ml BSA, 25 C; 25 nM DNA (15 nM labeled), protein 0-600 nM; recombinant protein; residues 1-368; protein details: N-terminal 6xHis-SUMO, cleaved off; label: 5' 6-FAM on F0-1; folded or branched DNA.

For data set [4], the target named is T4, At-HIGLE R57A (Arabidopsis thaliana) (UniProt Q682H4).
T4 sequence (looked up): T2 sequence (looked up) with A39R, R57A
The conditions noted are these: 2.5 mM Ca2+; 20 mM HEPES pH 7.5, 2.5 mM CaCl2, 100 mM NaCl, 0.5 mM DTT, 2 mM EDTA, 0.1 mg/ml BSA, 25 C; 25 nM DNA (15 nM labeled), protein 0-600 nM; recombinant protein; residues 1-368; protein details: N-terminal 6xHis-SUMO, cleaved off; label: 5' 6-FAM on F0-1; folded or branched DNA.

The target of data set [5] is T5, At-HIGLE (full length) (Arabidopsis thaliana) (UniProt Q682H4).
T5 sequence (looked up): T2 sequence (looked up) with A39R
The following applies: 2.5 mM Ca2+; 20 mM HEPES pH 7.5, 2.5 mM CaCl2, 100 mM NaCl, 0.5 mM DTT, 2 mM EDTA, 0.1 mg/ml BSA, 25 C; 25 nM DNA (15 nM labeled), protein 0-600 nM; recombinant protein; residues 1-368; protein details: N-terminal 6xHis-SUMO, cleaved off; label: 5' 6-FAM on F0-1; folded or branched DNA.

The target in data set [6] is T6, At-HIGLE R54A (Arabidopsis thaliana) (UniProt Q682H4).
T6 sequence (looked up): T2 sequence (looked up) with A39R, R54A
The conditions noted are these: 2.5 mM Ca2+; 20 mM HEPES pH 7.5, 2.5 mM CaCl2, 100 mM NaCl, 0.5 mM DTT, 2 mM EDTA, 0.1 mg/ml BSA, 25 C; 25 nM DNA (15 nM labeled), protein 0-600 nM; recombinant protein; residues 1-368; protein details: N-terminal 6xHis-SUMO, cleaved off; label: 5' 6-FAM on F0-1; folded or branched DNA.

In data set [7] the target is T7, At-HIGLE K115A (Arabidopsis thaliana) (UniProt Q682H4).
T7 sequence (looked up): T2 sequence (looked up) with A39R, K115A
The following applies: 2.5 mM Ca2+; 20 mM HEPES pH 7.5, 2.5 mM CaCl2, 100 mM NaCl, 0.5 mM DTT, 2 mM EDTA, 0.1 mg/ml BSA, 25 C; 25 nM DNA (15 nM labeled), protein 0-600 nM; recombinant protein; residues 1-368; protein details: N-terminal 6xHis-SUMO, cleaved off; label: 5' 6-FAM on F0-1; folded or branched DNA.

Data set [8] addresses T8, At-HIGLE W96A (Arabidopsis thaliana) (UniProt Q682H4).
T8 sequence (looked up): T2 sequence (looked up) with A39R, W96A
The following applies: 2.5 mM Ca2+; 20 mM HEPES pH 7.5, 2.5 mM CaCl2, 100 mM NaCl, 0.5 mM DTT, 2 mM EDTA, 0.1 mg/ml BSA, 25 C; 25 nM DNA (15 nM labeled), protein 0-600 nM; recombinant protein; residues 1-368; protein details: N-terminal 6xHis-SUMO, cleaved off; label: 5' 6-FAM on F0-1; folded or branched DNA.

Numbering of substitutions follows the chain as printed. The exact form of at least one protein or probe is not confirmed. For part of these data: Weaker means in comparison with the reference protein, sequence or condition of that experiment. For part of these data: At least one verdict was read from the data and is not stated in words by the source. Protein sequences can lack the tags named with them.

In the case of “ACCAGTGCCTTGCTAGGACATCTTTGCCCA / CTAGACAGCTCCATGTAGCAAGGCACTGGT / CATGGAGCTGTCTAG [3' flap]”, the binding result in data set [1] was “binds”.
“ACCAGTGCCTTGCTAGGACATCTTTGCCCA / CTAGACAGCTCCATGTAGCAAGGCACTGGT / TGGGCAAAGATGTCC / CATGGAGCTGTCTAG [Replication fork (RF)]”: in data set [1], the binding result was “binds”.
Take “ACCAGTGCCTTGCTAGGACATCTTTGCCCA / CTAGACAGCTCCATGTAGCAAGGCACTGGT / TGGGCAAAGATGTCC [5' flap]”: in data set [1], the binding result is listed as “binds”.
For “ACCAGTGCCTTGCTAGGACATCTTTGCCCA / CTAGACAGCTCCATGTAGCAAGGCACTGGT [Splayed arm (SA)]”, the binding result in data set [1] was “binds”.
As to “ACCAGTGCCTTGCTAGGACATCTTTGCCCA / TGGGCAAAGATGTCCATCTGTTGTAATCGT / ACGATTACAACAGATCATGGAGCTGTCTAG / CTAGACAGCTCCATGTAGCAAGGCACTGGT [Holliday junction (HJ)]”, the binding result in data set [2] was “binds more weakly”; in data set [3] it was “binds more weakly”; in data set [4], “binds more weakly”; in data set [5], “binds”; in data set [6], “binds more weakly”; in data set [1], “binds”. In addition, the binding result in data set [7] and in data set [8] was “binds more weakly” each time.
